Results deposited as PubChem BioAssay AID1259405 (NCATS, 2018).

Aim: 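Silenced genes that increase secreted GFP made by CHO cells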 (primary screen)
System: Chinese hamster CHO-K1 ovary cells with stable secreted eGFP expression
Knock-down reagent: single siRNA against mouse genes, 0.8 pmol siRNA per well (2 µl of 400 nM stock)
Timing: 3 days
Detection: 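Per-well intracellular GFP measured by laser scanning cytometry, plus viability from ATP luminescence, each relative to plate median of non-targeting control wells, in %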
Scale: GFP, % of control: higher = more GFP per well, higher productivity; viability (ATP), % of control: higher = more viable cells (more ATP)
Hit rule: 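Called active when intracellular GFP, relative to negative control, is at or above 120%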
In all, the deposit lists about 50,000 reagents; this is a random part of them. Over the whole deposit, about 4,000 (8%) were called active. 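Mouse siRNA library applied to hamster cells; one well for each siRNA.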 Unmarked entries are inactive. Reagents against one gene are numbered here. No sequences are given here.

Ptprg (protein tyrosine phosphatase receptor type G) #1 → GFP, % of control = 66.2; viability (ATP), % of control = 78.3
Ptprg (protein tyrosine phosphatase receptor type G) #2 → GFP, % of control = 54.5; viability (ATP), % of control = 38.3
Ptprg (protein tyrosine phosphatase receptor type G) #3 → GFP, % of control = 94.4; viability (ATP), % of control = 79.4
Hmgn3 (high mobility group nucleosomal binding domain 3) #1 → GFP, % of control = 46.8; viability (ATP), % of control = 40.1
Hmgn3 (high mobility group nucleosomal binding domain 3) #2 → GFP, % of control = 89.6; viability (ATP), % of control = 71.8
Hmgn3 (high mobility group nucleosomal binding domain 3) #3 → GFP, % of control = 102; viability (ATP), % of control = 80.1
Tmbim6 (transmembrane BAX inhibitor motif containing 6) #1 → GFP, % of control = 70.4; viability (ATP), % of control = 116
Tmbim6 (transmembrane BAX inhibitor motif containing 6) #2 → GFP, % of control = 70.2; viability (ATP), % of control = 118
Tmbim6 (transmembrane BAX inhibitor motif containing 6) #3 → GFP, % of control = 75.9; viability (ATP), % of control = 138
Nsun4 (NOL1/NOP2/Sun domain family, member 4) #1 → GFP, % of control = 88.2; viability (ATP), % of control = 99.9
Nsun4 (NOL1/NOP2/Sun domain family, member 4) #2 → GFP, % of control = 59.9; viability (ATP), % of control = 75.3
Nsun4 (NOL1/NOP2/Sun domain family, member 4) #3 → GFP, % of control = 75; viability (ATP), % of control = 81.2
Myl12b (myosin, light chain 12B, regulatory) #1 → GFP, % of control = 74.6; viability (ATP), % of control = 76
Myl12b (myosin, light chain 12B, regulatory) #2 → GFP, % of control = 88; viability (ATP), % of control = 66.5
Ofd1 (OFD1, centriole and centriolar satellite protein) #1 → GFP, % of control = 43; viability (ATP), % of control = 78.1
Ofd1 (OFD1, centriole and centriolar satellite protein) #2 → GFP, % of control = 77.9; viability (ATP), % of control = 69.5
